The experiment addresses T1, p70 (NAMPT) (Homo sapiens, UniProt P43490).
T1 construct: endogenous in cells; host or cells: H2122 lung cancer cells
Nature of the experiment: binding competition for photo-crosslinking of P7C3-S326 to p70 in H2122 cells. As to conditions: 0.3 μM P7C3-S326 plus 5 μM competitor, p70 band intensity, P7C3-S326 alone compared with plus competitor, vehicle 1.0. On the procedure: Cultured cells were co-exposed to P7C3-S326 (0.3 uM) and the individual P7C3 variants (5 uM), exposed to UV light, lysed, clicked to a fluorescent dye and run on SDS gels (FIG. 11).
P7C3-S326 was diluted to 0.3 μM in culture medium to treat H2122 cells. After incubation at 37° C. for 2 hours, H2122 cells were irradiated for 15 minutes under 306 nm ultraviolet light in a Stratalinker 2400 (Stratagene). Cells were then harvested by dissolving in 1% SDS lysis buffer 50 mM HEPES, pH 8.0, 2 mM MgCl2, 10 mM KCl, 1% SDS, 50 units/ml of Benzonase (Sigma), supplemented with Sigmafast protease inhibitor (Sigma).
The reaction was incubated at room temperature with constant agitation at 1,000 rpm on a thermomixer (Eppendorf) for 1 hour. Samples were then mixed with SDS sample loading buffer and loaded on an 8% SDS-PAGE gel, separated, and imaged using a Typhoon imager (filter settings: excitation 533 nm, emission 555 nm, and high sensitivity).
H2122 cells were incubated with the P7C3-S326 (0.3 μM) in the absence or presence of P7C3 analogs for 2 hours following by UV crosslinking. […] The samples were run on SDS-PAGE gels scanned using a Typhoon Imager. The p70 band intensity was analyzed and quantified by Image J, and the relative intensity in each assay was normalized to that of the DMSO control.

Chains of the proteins cited; added tags and fusions are not shown. Lines headed by an entry give the natural chain unless they say otherwise; changes in a name come on top.
UniProt P43490: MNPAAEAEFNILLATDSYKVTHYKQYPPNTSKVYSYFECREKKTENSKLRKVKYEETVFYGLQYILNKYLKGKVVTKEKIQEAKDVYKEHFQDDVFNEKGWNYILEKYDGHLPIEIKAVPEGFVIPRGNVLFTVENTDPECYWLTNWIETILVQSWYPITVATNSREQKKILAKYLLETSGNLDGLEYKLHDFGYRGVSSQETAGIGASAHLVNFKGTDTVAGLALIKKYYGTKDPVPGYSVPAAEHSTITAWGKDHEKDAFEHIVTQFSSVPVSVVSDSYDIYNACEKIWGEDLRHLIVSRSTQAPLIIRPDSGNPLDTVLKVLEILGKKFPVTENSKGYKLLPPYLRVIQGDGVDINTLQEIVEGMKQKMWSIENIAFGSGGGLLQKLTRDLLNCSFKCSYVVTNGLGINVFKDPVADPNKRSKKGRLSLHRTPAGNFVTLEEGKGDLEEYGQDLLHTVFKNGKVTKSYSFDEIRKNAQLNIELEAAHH

On to `CN(C)CCCN1c2ccccc2CCc2ccc(Cl)cc21.Cl` [S85, Clomipramine, reference compound], for which the Binding competition worked out at 0.9.

Values taken from patent US9243281B2, “Neuroprotective chemicals and methods for identifying and using same” (Board of Regents of The University of Texas System, priority 2013, dated 2016).
